Reference: the supplement of paper PMC8728848
The list shows a part of the results.

Experiments:
Assay in all cases: glycan array binding signal (z-score within array); higher = stronger binding
Details in all cases: glycan notation: IUPAC condensed, linker removed
Gal6S(b1-4)Glc6S = target: Gal6S(b1-4)Glc6S
Outline: (§1)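 The binding signal is a Z-score computed within each array and averaged over linkers. Arrays of the same protein sequence at different concentrations or buffers were also averaged together. Data originate from 3228 arrays in the Consortium for Functional Glycomics database, kept only where the protein sequence was available.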

Gal6S(b1-4)GlcNAc = target: Gal6S(b1-4)GlcNAc
Outline: as §1

Gal6S(b1-4)GlcNAc6S = target: Gal6S(b1-4)GlcNAc6S
Outline: as §1

GalNAc(a1-3)Gal = target: GalNAc(a1-3)Gal
Outline: as §1

GalNAc(a1-3)GalNAc = target: GalNAc(a1-3)GalNAc
Outline: as §1

[1] = target: GalNAc(a1-3)GalNAc(b1-3)Gal(a1-4)Gal(b1-4)Glc
Outline: as §1

[2] = target: GalNAc(a1-3)GalNAc(b1-3)Gal(a1-4)Gal(b1-4)GlcNAc
Outline: as §1

GalNAc(b1-3)Gal = target: GalNAc(b1-3)Gal
Outline: as §1

[3] = target: GalNAc(b1-3)Gal(a1-4)Gal(b1-4)GlcNAc
Outline: as §1

[4] = target: GalNAc(b1-3)Gal(a1-4)Gal(b1-4)GlcNAc(b1-3)Gal(b1-4)Glc
Outline: as §1

[5] = target: GalNAc(b1-3)Gal(a1-6)Gal(b1-4)Glc
Outline: as §1

GalNAc(b1-3)GalNAc = target: GalNAc(b1-3)GalNAc
Outline: as §1

GalNAc(b1-3)GlcNAc = target: GalNAc(b1-3)GlcNAc
Outline: as §1

GalNAc(b1-4)Gal(b1-4)Glc = target: GalNAc(b1-4)Gal(b1-4)Glc
Outline: as §1

GalNAc(b1-4)GlcNAc = target: GalNAc(b1-4)GlcNAc
Outline: as §1

[6] = target: GalNAc(b1-4)GlcNAc(b1-2)Man
Outline: as §1

[7] = target: GalNAc(b1-4)GlcNAc(b1-2)Man(a1-3)[GalNAc(b1-4)GlcNAc(b1-2)Man(a1-6)]Man(b1-4)GlcNAc(b1-4)GlcNAc
Outline: as §1

[8] = target: GalNAc(b1-4)GlcNAc(b1-3)GalNAc(b1-4)GlcNAc
Outline: as §1

GalNAc(b1-4)GlcNAc6S = target: GalNAc(b1-4)GlcNAc6S
Outline: as §1

GalNAc(b1-6)GalNAc = target: GalNAc(b1-6)GalNAc
Outline: as §1

GalNAc3S(b1-4)GlcNAc = target: GalNAc3S(b1-4)GlcNAc
Outline: as §1

GalNAc3S(b1-4)GlcNAc3S = target: GalNAc3S(b1-4)GlcNAc3S
Outline: as §1

[9] = target: GalNAc3S(b1-4)[Fuc(a1-3)]GlcNAc
Outline: as §1

GalNAc4S6S(b1-4)GlcNAc = target: GalNAc4S6S(b1-4)GlcNAc
Outline: as §1

GalNAc6S(b1-4)GlcNAc = target: GalNAc6S(b1-4)GlcNAc
Outline: as §1

Glc(a1-4)Glc = target: Glc(a1-4)Glc
Outline: as §1

[10] = target: Glc(a1-4)Glc(a1-4)Glc(a1-4)Glc
Outline: as §1

Glc(a1-6)Glc(a1-6)Glc = target: Glc(a1-6)Glc(a1-6)Glc
Outline: as §1

[11] = target: Glc(a1-6)Glc(a1-6)Glc(a1-6)Glc
Outline: as §1

Glc(b1-4)Glc = target: Glc(b1-4)Glc
Outline: as §1

Glc(b1-6)Glc = target: Glc(b1-6)Glc
Outline: as §1

GlcA(b1-3)Gal = target: GlcA(b1-3)Gal
Outline: as §1

GlcA(b1-3)GlcNAc = target: GlcA(b1-3)GlcNAc
Outline: as §1

GlcA(b1-6)Gal = target: GlcA(b1-6)Gal
Outline: as §1

[12] = target: GlcA3S(b1-3)Gal(b1-4)GlcNAc(b1-2)Man
Outline: as §1

[13] = target: GlcA3S(b1-3)Gal(b1-4)GlcNAc(b1-3)Gal(b1-4)Glc
Outline: as §1

[14] = target: GlcNAc(a1-3)Gal(b1-4)GlcNAc
Outline: as §1

B1: GS13971A-bth-447-22-447 (Bacteroides thetaiotaomicron) (protein)
chain: EDVDNERSKGMFSASQSGFSTIEVYDLGPLNKIDLSIAKAGLEDTGGTVTFSVEQSLLDSLNNADGTSYQLLPPECYTIENATYSVSPGGDRRVTGGSLVYDPHKIYNLCGFDELKYVLPLRVSSTGTPMNSDRTATLYGFIVKEAIVRLASTGGDFVVEGGTTTSPMNLDTEISFENEWDLTTSFATKGADYVDNYNSANSTYYIPLPSDFYTLPDVTIAKGKTTGGSAISLLGETLPPGNYLLPVSLGGLSGQGDASINIDKETVANYFVIKQGGPINRDHWTVTANTEEKTGEVSAAYPHNGQTISLIDGEINTFWHSKWQGGEVAPPYEIILDMGKENSVSQLGLIARQNALTSMNLEIYAGDDGETWNLIGKYFFDGSIKTEQMVPVKACDARWIRIYIPTLGSGSSVGHLAEIYVYGTDK
Gal6S(b1-4)Glc6S
  glycan array binding signal (z-score): 0.797
Gal6S(b1-4)GlcNAc
  glycan array binding signal (z-score): 1.23
Gal6S(b1-4)GlcNAc6S
  glycan array binding signal (z-score): 0.453
GalNAc(a1-3)Gal
  glycan array binding signal (z-score): -1.72
GalNAc(a1-3)GalNAc
  glycan array binding signal (z-score): 1.7
[1]
  glycan array binding signal (z-score): 0.375
[2]
  glycan array binding signal (z-score): -0.299
GalNAc(b1-3)Gal
  glycan array binding signal (z-score): -0.007
[3]
  glycan array binding signal (z-score): 0.916
[4]
  glycan array binding signal (z-score): -0.815
[5]
  glycan array binding signal (z-score): -0.007
GalNAc(b1-3)GalNAc
  glycan array binding signal (z-score): -0.635
GalNAc(b1-3)GlcNAc
  glycan array binding signal (z-score): 0.465
GalNAc(b1-4)Gal(b1-4)Glc
  glycan array binding signal (z-score): 0.451
GalNAc(b1-4)GlcNAc
  glycan array binding signal (z-score): 2.92
[6]
  glycan array binding signal (z-score): -0.221
[7]
  glycan array binding signal (z-score): 5.75
[8]
  glycan array binding signal (z-score): -0.446
GalNAc(b1-4)GlcNAc6S
  glycan array binding signal (z-score): 0.547
GalNAc(b1-6)GalNAc
  glycan array binding signal (z-score): 0.689
GalNAc3S(b1-4)GlcNAc
  glycan array binding signal (z-score): 0.07
GalNAc3S(b1-4)GlcNAc3S
  glycan array binding signal (z-score): -0.349
[9]
  glycan array binding signal (z-score): 0.092
GalNAc4S6S(b1-4)GlcNAc
  glycan array binding signal (z-score): -0.217
GalNAc6S(b1-4)GlcNAc
  glycan array binding signal (z-score): -1.49
Glc(a1-4)Glc
  glycan array binding signal (z-score): -0.043
[10]
  glycan array binding signal (z-score): -0.815
Glc(a1-6)Glc(a1-6)Glc
  glycan array binding signal (z-score): -0.45
[11]
  glycan array binding signal (z-score): 0.028
Glc(b1-4)Glc
  glycan array binding signal (z-score): -1.23
Glc(b1-6)Glc
  glycan array binding signal (z-score): 1.14
GlcA(b1-3)Gal
  glycan array binding signal (z-score): -0.637
GlcA(b1-3)GlcNAc
  glycan array binding signal (z-score): -0.782
GlcA(b1-6)Gal
  glycan array binding signal (z-score): 0.382
[12]
  glycan array binding signal (z-score): -0.506
[13]
  glycan array binding signal (z-score): -0.995
[14]
  glycan array binding signal (z-score): -0.748
